Laboratory results: publication PMC7872283
Results are given in words; binding and its absence hold for the method and conditions named. Binding seen in cells or lysates may run through a third protein. A result given as binding can be weak or reduced; the word gives no strength. For some assays here: Tags and fused reporters may be left off the sequences shown.

Experiments:
Test in all cases: co-IP
[1] = molecular target: T1, FLAG-tagged checkpoint with FHA and RING finger domains (CHFR) (UniProt Q96EP1)
T1 sequence: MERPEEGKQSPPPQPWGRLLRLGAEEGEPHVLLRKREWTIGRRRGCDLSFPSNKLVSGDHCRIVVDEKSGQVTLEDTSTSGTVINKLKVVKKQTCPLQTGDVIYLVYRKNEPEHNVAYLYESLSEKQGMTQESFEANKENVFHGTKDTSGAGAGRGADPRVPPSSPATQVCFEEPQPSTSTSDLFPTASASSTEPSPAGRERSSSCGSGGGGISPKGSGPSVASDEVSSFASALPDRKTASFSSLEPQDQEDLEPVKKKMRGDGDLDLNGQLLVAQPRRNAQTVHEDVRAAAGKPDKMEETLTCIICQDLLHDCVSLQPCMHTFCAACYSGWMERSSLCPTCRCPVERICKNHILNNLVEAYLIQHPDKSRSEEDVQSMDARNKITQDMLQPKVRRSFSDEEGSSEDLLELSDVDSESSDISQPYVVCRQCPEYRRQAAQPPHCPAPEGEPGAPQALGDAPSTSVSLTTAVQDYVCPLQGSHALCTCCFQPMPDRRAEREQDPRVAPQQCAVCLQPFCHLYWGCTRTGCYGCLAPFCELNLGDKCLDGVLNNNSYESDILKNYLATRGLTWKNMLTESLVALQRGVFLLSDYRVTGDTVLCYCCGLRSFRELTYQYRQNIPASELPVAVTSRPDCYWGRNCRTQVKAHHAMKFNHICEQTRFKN

[2] = molecular target: T2, FLAG-tagged ubiquitin-like with PHD and RING finger domains 1 (UHRF1) (UniProt Q96T88)
T2 sequence: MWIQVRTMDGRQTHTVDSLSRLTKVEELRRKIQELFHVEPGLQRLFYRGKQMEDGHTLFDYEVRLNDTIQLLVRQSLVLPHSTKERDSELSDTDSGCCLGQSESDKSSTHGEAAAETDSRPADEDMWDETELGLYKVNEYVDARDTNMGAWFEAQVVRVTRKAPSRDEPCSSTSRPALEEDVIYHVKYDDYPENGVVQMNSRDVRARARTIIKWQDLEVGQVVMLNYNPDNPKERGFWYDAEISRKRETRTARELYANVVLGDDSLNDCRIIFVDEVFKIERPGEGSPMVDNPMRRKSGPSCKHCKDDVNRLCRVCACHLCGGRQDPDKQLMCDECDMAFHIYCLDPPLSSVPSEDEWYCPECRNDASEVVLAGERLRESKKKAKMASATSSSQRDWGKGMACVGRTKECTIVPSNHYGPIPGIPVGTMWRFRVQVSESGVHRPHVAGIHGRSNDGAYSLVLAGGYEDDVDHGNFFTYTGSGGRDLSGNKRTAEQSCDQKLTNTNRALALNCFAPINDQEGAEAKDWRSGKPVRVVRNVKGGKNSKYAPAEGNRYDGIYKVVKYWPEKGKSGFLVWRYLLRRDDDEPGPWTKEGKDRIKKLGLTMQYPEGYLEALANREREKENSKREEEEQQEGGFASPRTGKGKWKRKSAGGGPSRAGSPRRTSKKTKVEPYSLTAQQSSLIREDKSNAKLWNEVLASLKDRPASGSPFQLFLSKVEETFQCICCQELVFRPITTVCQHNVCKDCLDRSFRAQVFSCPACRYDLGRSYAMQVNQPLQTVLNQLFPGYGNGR

[3] = molecular target: FLAG-tagged PF-8, stably expressed from the lentiviral vector C274-FLAG-PF8 (Kaposi's sarcoma-associated herpesvirus (KSHV; genomic DNA from BC-3 cells))
[4] = molecular target: MYC-tagged PF-8 (KSHV processivity factor, wild type) (Kaposi's sarcoma-associated herpesvirus (KSHV; genomic DNA from BC-3 cells))

**Q.** How did the binding [1] turn out when “MYC-tagged PF-8 (KSHV processivity factor, wild type)” was run?
**A.** Its binding is “binds”.

**Q.** And the binding [2]?
**A.** Its binding is “binds”.

B1: endogenous CHFR (enzyme, UniProt Q96EP1 1-664)
chain: MERPEEGKQSPPPQPWGRLLRLGAEEGEPHVLLRKREWTIGRRRGCDLSFPSNKLVSGDHCRIVVDEKSGQVTLEDTSTSGTVINKLKVVKKQTCPLQTGDVIYLVYRKNEPEHNVAYLYESLSEKQGMTQESFEANKENVFHGTKDTSGAGAGRGADPRVPPSSPATQVCFEEPQPSTSTSDLFPTASASSTEPSPAGRERSSSCGSGGGGISPKGSGPSVASDEVSSFASALPDRKTASFSSLEPQDQEDLEPVKKKMRGDGDLDLNGQLLVAQPRRNAQTVHEDVRAAAGKPDKMEETLTCIICQDLLHDCVSLQPCMHTFCAACYSGWMERSSLCPTCRCPVERICKNHILNNLVEAYLIQHPDKSRSEEDVQSMDARNKITQDMLQPKVRRSFSDEEGSSEDLLELSDVDSESSDISQPYVVCRQCPEYRRQAAQPPHCPAPEGEPGAPQALGDAPSTSVSLTTAVQDYVCPLQGSHALCTCCFQPMPDRRAEREQDPRVAPQQCAVCLQPFCHLYWGCTRTGCYGCLAPFCELNLGDKCLDGVLNNNSYESDILKNYLATRGLTWKNMLTESLVALQRGVFLLSDYRVTGDTVLCYCCGLRSFRELTYQYRQNIPASELPVAVTSRPDCYWGRNCRTQVKAHHAMKFNHICEQTRFKN
**Q.** With B1 as the molecule, how does the binding [3] read?
**A.** Its binding is “binds”.

**Q.** What about the binding [4] of the same molecule?
**A.** The binding was “binds”.

B2: endogenous UHRF1 (enzyme, UniProt Q96T88 1-793)
chain: MWIQVRTMDGRQTHTVDSLSRLTKVEELRRKIQELFHVEPGLQRLFYRGKQMEDGHTLFDYEVRLNDTIQLLVRQSLVLPHSTKERDSELSDTDSGCCLGQSESDKSSTHGEAAAETDSRPADEDMWDETELGLYKVNEYVDARDTNMGAWFEAQVVRVTRKAPSRDEPCSSTSRPALEEDVIYHVKYDDYPENGVVQMNSRDVRARARTIIKWQDLEVGQVVMLNYNPDNPKERGFWYDAEISRKRETRTARELYANVVLGDDSLNDCRIIFVDEVFKIERPGEGSPMVDNPMRRKSGPSCKHCKDDVNRLCRVCACHLCGGRQDPDKQLMCDECDMAFHIYCLDPPLSSVPSEDEWYCPECRNDASEVVLAGERLRESKKKAKMASATSSSQRDWGKGMACVGRTKECTIVPSNHYGPIPGIPVGTMWRFRVQVSESGVHRPHVAGIHGRSNDGAYSLVLAGGYEDDVDHGNFFTYTGSGGRDLSGNKRTAEQSCDQKLTNTNRALALNCFAPINDQEGAEAKDWRSGKPVRVVRNVKGGKNSKYAPAEGNRYDGIYKVVKYWPEKGKSGFLVWRYLLRRDDDEPGPWTKEGKDRIKKLGLTMQYPEGYLEALANREREKENSKREEEEQQEGGFASPRTGKGKWKRKSAGGGPSRAGSPRRTSKKTKVEPYSLTAQQSSLIREDKSNAKLWNEVLASLKDRPASGSPFQLFLSKVEETFQCICCQELVFRPITTVCQHNVCKDCLDRSFRAQVFSCPACRYDLGRSYAMQVNQPLQTVLNQLFPGYGNGR
**Q.** For B2, which binding [3] is on record?
**A.** The binding was “binds”.
